Drawing on paper PMC2996332, this text covers binding for one molecule.

The target in assay [1] is Myc-DCAF11R432A (N. crassa). The assay is described as follows: co-IP; lysates of N. crassa strains co-expressing a Myc-tagged and a Flag-tagged protein; immunoprecipitation with c-Myc antibody (stated for Figures 6A, 8D, 8E; not stated for Figure 8A), western blot with c-Myc and Flag antibodies. (In general: A western blot detects proteins with antibodies after separation by electrophoresis.)

For a further assay, the target named is Myc-DCAF11 (N. crassa). The assay is described as above.

No constants are given. Whether binding was seen depends on the method and setting. In cells and extracts the contact can be indirect. For some assays here: Binding can be weak; no strength is given. Where a sequence is shown, tags or fusion partners need not be part of it.

B1: Flag-Cul4 (protein, UniProt Q7RZU1 1-1039)
chain: MPSNSTANPSELSRDNNNNNNNNNNNNNNNNNNNITTSHLHQHTPSSPPQATPTKRRFDDLNLKDKGAQQSHLHAAASSTTNTAAPNKRSRSELFAASSAVHPTTATTPPTMSAKLKGKRPASGPPEVIDLTQGSNNSAGSSPVATSSHSDIRGPPLSSSHSTGRTSTAPLNPKGGGMATGKTPGGTNYLQTHIGARRLVVKNLRPVATQTQTEEAHYARIRGDLDTALRAIFSGHGAGAGAGAGAAPALGGYSPSPGGPGGQSRSGAAGNNTTTGGQPMEKLYRGVEDICRRGKKESGELYEWLKDRCKGWLNSDEVLKSLLAAAPSIASDMGGEEDVILLRAVLAAWKRWIAQLLVIRWIFSYLDRSYLLPGGSGTSAEGKGKSASGKREGPTSVNDMGISAFRSAMYSSRSRNGANMLTIGARVVNAVCVLVMFDRLDDSRFDSQLLRESVAMLRLWGVYGKELEPKFINESREYVRRFAEERSESCGLKDYIVACERLLNKESERCDVYNFDSTTKRQLKDDAHDILIFNYAEKLLDSGSVAKLLDANDLDSIKALYELLKLSGIQKRLKGPWEQYIRKAGAAIVSDTARGDEMIIRILQLRRALDVMVRDAFGRDEDFTYGLRDAFGFFINDKSVSSSWNTGTSKVGEMIAKHIDMLLRGGLKTLPKALLSDVKDRQDAERSGIASTADEDAELDRQLDHSLELFRFIQGKDIFEAFYKKDLARRLLMGRSASRDAERNMLAKLKNECGSSFTHNLEIMFKDQELAKDEIASYKTWLAGRGEDSPVANSELDLSVNVLSAAAWPTYPDVRVLLPQNVLDHITTFDTYYKSKHTGRRLTWKHNLAHCVVKARFDRGPKELLVSAFQAIVLVLFNEAEEKSPDGILSYEQLASATGMPDPELQRTLQSLACGKTRVLNKHPKGRDVNKTDTFSINKSFTDPKFRVKINQIQLKETKEENKETHERVAQDRQFETQAAIVRIMKSRKKMAHAQLVAEVINQTKQRGAVDAADIKANIEKLIEKDYIEREGGNYVYLA
Consider B1, for which the results for the binding entry (in assay [1]; with Myc-DCAF11 (N. crassa)) were “no binding” and “binds”, respectively.
